In paper PMC6465301, “Enzyme-responsive progelator cyclic peptides for minimally invasive delivery to the heart post-myocardial infarction” (Nature Communications, 2019):

Assay: In vitro catheter injection (MyoStar transendocardial catheter)
Conditions: 10 mM in 1× DPBS pH 7.4, 0.6 mL min−1, 27 G inner nitinol tubing of MyoStar catheter, 37 °C water bath; cyclic progelators 2 mol% labeled, incubation in catheter loop 60 min

Substance | Catheter injectability
Ac-KFDFKFDFKFDF-NH2 [KFDF] | caused immediate catheter clogging
Ac-KLDLKLDLKLDL-NH2 [KLDL] | caused immediate catheter clogging
